# Test results as given in the supplement of paper PMC6119338.
# ± gives the standard deviation of the averaged measurements. The list shows a part of the results. Single values are uncertain, as repeats are few or missing.
# System: Plasmodium berghei sporozoites
# Assay: residual sporozoite gliding motility relative to DMSO control; higher = less inhibition of motility
# Details: 10 µM; incubation time 30 min
row,SMILES,residual sporozoite gliding motility [%]
1,O=C(Cc1ccccc1)NC(c1ccc(Cl)cc1)c1c(O)ccc2ccccc12 (stereo unspecified),> 50
2,CCN(CC)CCCNc1ccnc2cc3ccccc3cc12,> 50
3,COc1ccccc1N1CCN(C(CNS(=O)(=O)c2ccc(Cl)cc2)c2cccnc2)CC1 (stereo unspecified),> 50
4,O=C(NC1CCN(Cc2ccccc2)CC1)c1cc2nc(-c3ccc(Cl)s3)cc(C(F)(F)F)n2n1,> 50
5,COc1ccc(-c2nc(NC(=O)CS(=O)(=O)c3ccc(F)cc3)sc2C)cc1,> 50
6,CCOc1ccc(CCNC(=O)c2cccs2)cc1OCC,> 50
7,Cc1ccc(Nc2nc(N)c3ccccc3n2)cc1Cl,> 50
8,COc1ccc(C2NCCc3c2[nH]c2ccccc32)cc1CN1CCN(c2ccc(F)cc2)CC1 (stereo unspecified),> 50
9,O=C1c2ccc3c4c(ccc(c24)C(=O)N1CCCCO)C(=O)N(CCCCO)C3=O,> 50
10,COc1ccc(/C=C2/SC(=Nc3ccccc3)NC2=O)cc1,> 50
11,CCOC(=O)c1c(C)n(-c2ccccc2)c2ccc(OC(=O)c3cc(OC)c(OC)c(OC)c3)cc12,> 50
12,CC(C)(C)c1ccc(C(=O)Nc2c3c(nn2-c2cccc(Cl)c2)CSC3)cc1,> 50
13,COc1cc(C(=O)ON=C(N)Cc2cccc3ccccc23)cc(OC)c1OC,> 50
14,Cc1ccc(CSCc2ccc(C(=O)NC3CC3)o2)cc1,> 50
15,CC(C)OCc1cc(CN2CCN(c3cccc(Cl)c3)CC2)c(O)c2ncccc12,> 50
16,CN(C)CCCNc1c2ccccc2nc2ccccc12,> 50
17,Cc1ccc(-c2nc3ccccc3o2)cc1NCc1cc(Cc2ccccc2)ccc1O,> 50
18,CC1CCN(Cc2ccc(NC(=O)c3cc4ccc5cccnc5c4[nH]3)cc2)CC1,> 50

row,SMILES,residual sporozoite gliding motility [%]
1,OC(CNCc1ccccc1)Cn1c2ccccc2c2ccccc21 (stereo unspecified),> 50
2,CCOC(=O)c1ccc2nc(-c3ccccc3)cc(O)c2c1,> 50
3,CCCCCC(=O)N1c2ccccc2N=C2CC(c3ccc(OC)c(OC)c3)CC(O)=C2C1c1ccc(C(F)(F)F)cc1 (stereo unspecified),> 50
4,FC(F)(F)c1cccc(Nc2nc3ccccc3nc2Nc2cccc(C(F)(F)F)c2)c1,29.3 ± 5
5,Cc1ccc(C)c(Cn2c(N3CCC(C(=O)NCc4cccs4)CC3)nc3ccccc32)c1,> 50
6,COc1ccc(Nc2nc(N/N=C/c3ccc(O)cc3)nc(Nc3ccc([N+](=O)[O-])cc3)n2)cc1,> 50
7,CCN(CC)CCNc1ccnc2cc3ccccc3cc12,> 50
8,COc1ccc(C2N(C)c3ccccc3N2C)cc1,> 50
9,Cc1cccc(N2C(=O)C3C(C2=O)C2(c4ccccc4)C(=O)C3(c3ccccc3)C(c3ccc4c(c3)OCO4)=C2c2ccc3c(c2)OCO3)c1 (stereo unspecified),> 50
10,COc1cccc(O)c1CN1CCC2(CCCN(Cc3ccc(F)cc3)C2)C1 (stereo unspecified),> 50
11,COc1cccc(C(=O)Nc2ccc(-c3nc4ccccc4[nH]3)cc2)c1,> 50
12,Cc1ccc(F)cc1NC(=O)c1cc(Cl)ccc1Nc1ccccc1,> 50
13,Cc1cc(NC(=O)c2cccc(C(F)(F)F)c2)n(-c2nc(-c3ccc4c(c3)OCO4)cs2)n1,> 50
14,CN1CCN(c2ncnc3c2[nH]c2ccc(Cl)cc23)CC1,> 50
15,Cc1cc(C)c2c(c1)OCN(Cc1ccccc1Cl)C2,> 50
16,Oc1ccccc1CNCC12CC3CC(CC(C3)C1)C2,> 50
17,Oc1c(CN2CCN(c3ccccc3F)CC2)cc(Br)c2cccnc12,55 ± 35
18,Cc1ccc(Cn2c(N3CCC(C(=O)NCc4cccs4)CC3)nc3ccccc32)cc1,> 50

# Rewritten as tab-separated lines: part of the list above.
row	SMILES	residual sporozoite gliding motility [%]
2	CCOC(=O)c1ccc2nc(-c3ccccc3)cc(O)c2c1	> 50
3	CCCCCC(=O)N1c2ccccc2N=C2CC(c3ccc(OC)c(OC)c3)CC(O)=C2C1c1ccc(C(F)(F)F)cc1 (stereo unspecified)	> 50
8	COc1ccc(C2N(C)c3ccccc3N2C)cc1	> 50
9	Cc1cccc(N2C(=O)C3C(C2=O)C2(c4ccccc4)C(=O)C3(c3ccccc3)C(c3ccc4c(c3)OCO4)=C2c2ccc3c(c2)OCO3)c1 (stereo unspecified)	> 50
11	COc1cccc(C(=O)Nc2ccc(-c3nc4ccccc4[nH]3)cc2)c1	> 50
15	Cc1cc(C)c2c(c1)OCN(Cc1ccccc1Cl)C2	> 50
16	Oc1ccccc1CNCC12CC3CC(CC(C3)C1)C2	> 50
17	Oc1c(CN2CCN(c3ccccc3F)CC2)cc(Br)c2cccnc12	55 ± 35
18	Cc1ccc(Cn2c(N3CCC(C(=O)NCc4cccs4)CC3)nc3ccccc32)cc1	> 50
